Reference: PubChem BioAssay AID1347075 (National Center for Advancing Translational Sciences (NCATS), 2019)
In all, about 400,000 compounds went through this assay and about 5,500 (1.4%) were called active. The inconclusive results got no clear call from the source; some entries with a clear call stand among them for comparison. Calls follow the shape of the dose curve; as a rule, active = well fitted cell-killing curve with a large enough effect; inconclusive = small, poorly fitted or top-dose-only effect, or effect the other way; inactive = flat fitted curve, though single readings scatter. Potencies beside an inconclusive call are fits to weak or partial responses and may not hold up.

Test: qHTS assay for MDR1-selective chemotherapeutics: Primary screen using the parental adenocarcinoma cell KB-3-1; also: nearly all actives have a fitted effect of over 60% in size
Settings: KB-3-1 viability, CellTiter-Glo ATP luminescence, 72 h; activity change, negative = cytotoxic: at 46.1 µM (top of the series)
In short: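 Luminescent ATP read-out (CellTiter-Glo) measures survival of drug-naive KB-3-1 cells after 72 h compound exposure at 37 °C. Titration series was screened from lowest to highest concentration, with DMSO vehicle plates as background controls.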
% is scaled to controls: 0 for no effect and ±100 for the full control effect; potency is read from the fitted curve at half-maximal effect.

SMILES	Potency	activity change, negative = cytotoxic
Cc1nn(-c2ccccc2)c2sc(C(=O)N(Cc3ccco3)C(C)C(=O)NC(C)(C)C)cc12 (stereo not drawn)	inconclusive: 29.1 µM [cytotoxic, single point]	
Cc1ccc(C)c(SCC(=O)Nc2ccc(C)c(S(=O)(=O)N3CCOCC3)c2)c1	inconclusive: 29.1 µM [cytotoxic, single point]	
O=C(Cc1ccc(Cl)c(Cl)c1)NNC(=S)NCC1CCCO1 (stereo not drawn)	inconclusive: 18.4 µM [cytotoxic, partial curve]	
COc1ccc(C)cc1NC(=O)Cn1c(=O)oc2cc(S(=O)(=O)N3CCCCC3)ccc21	inactive	
O=C(CN1CCN(c2ccccn2)CC1)Nc1cccc(F)c1	inactive	
Cc1sc2ncnc(SCC(=O)Nc3ncccc3O)c2c1C	inconclusive: 0.0259 µM [rising, full curve]	
COc1cccc(CNC(=O)c2cccc(NC(=O)CC3SC(N4CCCCC4)=NC3=O)c2)c1 (stereo not drawn)	inconclusive: 29.1 µM [cytotoxic, single point]	
Cc1c(C#N)c2ccccc2n1C	inconclusive: 29.1 µM [rising, single point]	
COc1ccc(OC)c(C2C(C(=O)Nc3nc4ccccc4s3)=C(C)NC3=C2C(=O)CCC3)c1 (stereo not drawn)	inconclusive: 29.1 µM [cytotoxic, single point]	
Cc1ccc(S(=O)(=O)N2CCC[C@H]2C(=O)NC2CCCCC2)cc1	inconclusive: 25.9 µM [rising, partial curve, poor fit]	
CC1CCCN(S(=O)(=O)c2ccc(C(=O)Nc3nnc(-c4ccccn4)o3)cc2)C1 (stereo not drawn)	inconclusive: 16.4 µM [cytotoxic, single point]	
Cc1cccc2sc(N(CCCN(C)C)C(=O)c3nc4ccccc4s3)nc12	inactive	
N#Cc1nc(COc2ccccc2Cl)oc1NCCc1ccccc1	inactive	
CCCOc1ccc([N+](=O)[O-])cc1C1NC(=S)NC(c2ccccc2)=C1C(=O)OCC (stereo not drawn)	inconclusive: 23.1 µM [cytotoxic, single point]	
Cc1cccc(C(=O)NC(C(=O)Nc2nc(-c3ccccn3)cs2)C(C)C)c1 (stereo not drawn)	inactive	
N#C/C(=C(/O)COC(=O)COc1ccc(Cl)cc1)c1nc2ccccc2[nH]1	inconclusive: 18.4 µM [cytotoxic, partial curve]	
Cc1ccc(CNC(=O)c2cc(C)nn2-c2ccccc2)cc1	inconclusive: 14.6 µM [rising, partial curve, poor fit]	
CC(=NNC(=S)Nc1cccc(Cl)c1)c1ccccn1	inconclusive: 0.0065 µM [cytotoxic, full curve, poor fit]	
CC(=O)Nc1nc(-c2ccc3c(c2)CCN3C(=O)C2CC2)c(C)s1	inconclusive: 29.1 µM [cytotoxic, single point]	
CCNC(=S)N/N=C/c1cccc(OCc2c(F)cccc2Cl)c1	inconclusive: 23.1 µM [cytotoxic, partial curve, poor fit]	
CCC(=C(c1ccc(OC)cc1)c1ccc(OC)cc1)c1cn(CC(O)CN2CCN(C)CC2)c2ccccc12 (stereo not drawn)	inconclusive: 29.1 µM [cytotoxic, single point]	
C/C(=N\NC(=O)C1=NNC(=O)C1C)c1cccs1 (stereo not drawn)	inconclusive: 13 µM [cytotoxic, partial curve]	
CCOc1ccc(C(=O)Cc2ccccc2)cc1	inconclusive: 1.3 µM [rising, full curve]	

SMILES	Potency	activity change, negative = cytotoxic
CC(C)C(=O)N1CCN(c2c(Cl)cccc2[N+](=O)[O-])CC1	inconclusive: 20.6 µM [cytotoxic, partial curve]	
Cc1ccc(C2=NN(C(=O)CSc3nccn3C)C(c3ccco3)C2)cc1 (stereo not drawn)	inconclusive: 20.6 µM [cytotoxic, single point]	
CC(C)(C)C(=O)NNC(=O)COc1ccc2ccccc2c1Br	inconclusive: 18.4 µM [cytotoxic, single point]	
O=[N+]([O-])c1ccc2[nH]c(=S)sc2c1	inconclusive: 29.1 µM [cytotoxic, single point]	
O=[N+]([O-])c1ccc(N2CCN(c3ccc([N+](=O)[O-])cc3CO)CC2)c(CO)c1	inconclusive: 2.59 µM [cytotoxic, full curve, poor fit]	
CN(C)c1cc[n+](CC(=O)Nc2ccc(Cl)cc2)cc1	active: 3.66 µM	
NCCOc1ccc(C23CC4CC(CC(C4)C2)C3)cc1	inconclusive: 29.1 µM [cytotoxic, single point]	
Cc1cc(C)c(NS(=O)(=O)c2ccc3c(c2)CC(C)N3C(=O)C2CCC2)c(C)c1 (stereo not drawn)	inconclusive: 2.59 µM [cytotoxic, partial curve]	
O=S(=O)(Nc1nc2ccccc2nc1Cl)c1ccc(Cl)cc1	inconclusive: 18.4 µM [cytotoxic, single point]	
COc1ccccc1CNC(=O)C1CC(c2cccc([N+](=O)[O-])c2)=NO1 (stereo not drawn)	inconclusive: 29.1 µM [cytotoxic, single point]	
Nc1nc(Cl)cc(Nc2ccccc2Cl)n1	inconclusive: 29.1 µM [cytotoxic, single point]	
O=C(Cn1nc(-c2ccccc2)c2c(c1=O)CCCC2)Nc1ccc(F)c(Cl)c1	active: 23.1 µM	
CCN(CC(=O)Nc1c(F)cccc1F)C(=O)/C=C/c1ccc2ccccc2n1	inconclusive: 29.1 µM [rising, single point]	
O=C(N/N=C/c1ccccc1[N+](=O)[O-])c1ccc2c(c1)OCCO2	inconclusive: 29.1 µM [cytotoxic, partial curve, poor fit]	
CCCCCCC[n+]1ccc(C)c2ccccc21	active: 0.58 µM	
COc1ccc(NC(=O)C(=O)Nc2cccc3cccnc23)c(OC)c1	inconclusive: 29.1 µM [cytotoxic, single point]	
C=C1C=C(C(F)F)n2ncc(C(=O)N3CCN(c4ccccc4)CC3)c2N1	inconclusive: 29.1 µM [cytotoxic, single point]	
CCOc1ccc2nc(NC(=O)c3cccnc3)sc2c1	inconclusive: 29.1 µM [rising, single point]	
COC(=O)c1c(C)c(OC(=O)c2c(C)cc(O)c(C=O)c2O)cc(C)c1O		inconclusive: 0%
Cc1ccnc(NC(=O)c2ccc([N+](=O)[O-])s2)c1	inconclusive: 16.4 µM [cytotoxic, partial curve, poor fit]	
Cn1c(=O)c2c(ncn2CCCc2ccccc2)n(C)c1=O	inconclusive: 14.6 µM [cytotoxic, partial curve, poor fit]	
CN(C(=O)c1cccc(NC(=O)Cc2ccc(NC(=O)C3CCCN(C(=O)CCc4ccccc4)C3)cc2)c1)C1CCCC1 (stereo not drawn)	active: 6.51 µM	
CC(=O)N1CCN(Cc2nc3cc(NC(=O)Cn4nc(C)c5ccccc5c4=O)ccc3n2C)CC1	inactive	

A run of entries from the list above:
SMILES	Potency	activity change, negative = cytotoxic
O=S(=O)(Nc1nc2ccccc2nc1Cl)c1ccc(Cl)cc1	inconclusive: 18.4 µM [cytotoxic, single point]	
COc1ccccc1CNC(=O)C1CC(c2cccc([N+](=O)[O-])c2)=NO1 (stereo not drawn)	inconclusive: 29.1 µM [cytotoxic, single point]	

Next part

SMILES	Potency	activity change, negative = cytotoxic
Cn1c(SCC(=O)N(C2CCCCC2)C2CCCCC2)nnc1-c1cccs1	inconclusive: 20.6 µM [cytotoxic, single point]	
CN(CCNC(=O)C1CCN(c2ncnc3c2nc2n3CCCCC2)CC1)Cc1ccccc1	inconclusive: 16.4 µM [cytotoxic, single point]	
COc1ccc(N2CCN(C(=O)c3cc4c(C)nc5ccccc5c4o3)CC2)cc1	inactive	
O=C(O)c1ccc(N/N=C/c2ccc(-c3cccc(Cl)c3)o2)cc1	inconclusive: 18.4 µM [cytotoxic, single point]	
COc1ccc(CC(=O)Nc2nc(-c3cccnc3)cs2)cc1	inactive	
COc1ccc(/C=N\NC(=O)c2cc3c(ccc4ccccc43)o2)cc1O	inconclusive: 29.1 µM [cytotoxic, single point]	
CCOc1ccc(C(=O)Nc2ccc(CN3CCOCC3)cc2)cc1Br	inconclusive: 29.1 µM [cytotoxic, single point]	
Cc1ccc(/C=N/Nc2ccc(F)cc2F)s1	inactive	
C(=N\Nc1nc2ccccc2[nH]1)/c1cccc2cccnc12	inconclusive: 20.6 µM [cytotoxic, single point]	
CCNc1nc(C)c2cc(Br)c(=O)n(CC)c2n1	inconclusive: 29.1 µM [cytotoxic, single point]	
C[C@H](O)[C@@H]1CN2CCc3c([nH]c4ccccc34)[C@@H]2C[C@@H]1N(C)C(=O)Nc1cccc2ccccc12	inactive	
Cc1cc(C)n(-c2ccc3cccc(NS(C)(=O)=O)c3n2)n1	inconclusive: 5.8 µM [cytotoxic, full curve]	
CCOC(=O)c1cc(OC(=O)c2cc(OC)c(OC)c(OC)c2)n(-c2ccccc2)n1	inactive	
CC(O)(c1cccc(F)c1)c1nc(-c2ccc3ccccc3c2)cs1 (stereo not drawn)	inactive	
CCOC(=O)c1c(C)oc2nc(C)nc(N3CCN(c4cc(Cl)ccc4C)CC3)c12	inactive	
CN(CCC(=O)Nc1ccc2c(c1)OCO2)Cc1ccccc1	inactive	
CCCc1nc2ccccc2n1CC(O)COc1ccc(NC(C)=O)cc1 (stereo not drawn)	inconclusive: 29.1 µM [rising, single point]	
Cc1cc(OCC(=O)Nc2c(C(=O)c3ccccc3)oc3ccccc23)cc(C)c1Cl	inactive	
CCOc1ccc(N(CC(=O)Nc2ccccc2OC)S(=O)(=O)c2ccccc2)cc1	active: 4.61 µM	
Cc1cc2c(cc1C)C(c1ccccc1OC(C)C)CC(=O)N2 (stereo not drawn)	active: 5.8 µM	
Cc1oc(-c2ccc(-c3ccccc3)cc2)nc1CN(C)C1CCOC1 (stereo not drawn)	inconclusive: 20.6 µM [cytotoxic, partial curve, poor fit]	
Cc1cccc(OCCC(=O)Nc2ccc(C)c(S(=O)(=O)N3CCOCC3)c2)c1	inconclusive: 29.1 µM [cytotoxic, single point]	
